Measured values taken from patent US20240217960A1, “TRIAZINE DERIVATIVE AS COVALENT INHIBITORS OF PI3K” (UNIVERSITÄT BASEL, priority 2021, published 2024).

Assay: Intrinsic reactivity of the inhibitors (kchem) with βME measured with HPLC
Format: physicochemical
Details: for reactivity with βME (kchem not reliably determinable): 12 M βME

SMILES	reaction with βME (kchem not reliably determinable) (1 mM βME)	reactivity with βME (kchem not reliably determinable)
C=CC(=O)CCCCC(=O)N1CCN(c2nc(-c3cnc(N)nc3C(F)F)nc(N3CCOCC3)n2)CC1 [Compound 1, 1-(4-(4-(2-amino-4-(difluoromethyl)pyrimidin-5-yl)-6-morpholino-1,3,5-triazin-2-yl)piperazin-1-yl)oct-7-ene-1,6-dione]	too rapidly completed reaction	–
CC(C)=CC(=O)N(C)CCCC(=O)N1CCN(c2nc(-c3cnc(N)nc3C(F)F)nc(N3CCOCC3)n2)CC1 [Compound 11, N-(4-(4-(4-(2-amino-4-(difluoromethyl)pyrimidin-5-yl)-6-morpholino-1,3,5-triazin-2-yl)piperazin-1-yl)-4-oxobutyl)-N,3-dimethylbut-2-enamide]	–	lack of reactivity
CC(C)=CC(=O)NCCCC(=O)N1CCN(c2nc(-c3cnc(N)nc3C(F)F)nc(N3CCOCC3)n2)CC1 [Compound 17, N-(4-(4-(4-(2-amino-4-(difluoromethyl)pyrimidin-5-yl)-6-morpholino-1,3,5-triazin-2-yl)piperazin-1-yl)-4-oxobutyl)-3-methylbut-2-enamide]	–	lack of reactivity
